# Values of other authors, collected in patent US20200308540A1, “METHODS OF MAKING, EXPANDING, AND USING A HUMAN PROGENITOR T CELL” (REGENTS OF THE UNIVERSITY OF MINNESOTA, priority 2017, published 2020).
# At least one compound was matched to its structure with a doubt left.
# System: patients
# Details: SR1-expanded cord blood; cited from earlier work
compound,measurement,value
"CC(C)n1cnc2c(NCCc3ccc(O)cc3)nc(-c3csc4ccccc34)nc21 [SR1, StemRegenin-1]",patients with engraftment,17of 17 patients
